Assay results taken from the supplement of paper PMC3353916.

Tested on: Sindbis virus TE/5'2J-GFP
Experiment: percent infected (GFP+ in RFP+ ISG-expressing cells); higher = more infection (less antiviral activity)
Settings: experiment: primary screen (single well)

Sequence | percent infected (BHK/NZAP-Zeo (ZAP)) | percent infected (BHK/HA-Zeo (control))
MTEALQWARYHWRRLIRGATRDDDSGPYNYSSLLACGRKSSQTPKLSGRHRIVVPHIQPFKDEYEKFSGAYVNNRIRTTKYTLLNFVPRNLFEQFHRAANLYFLFLVVLNWVPLVEAFQKEITMLPLVVVLTIIAIKDGLEDYRKYKIDKQINNLITKVYSRKEKKYIDRCWKDVTVGDFIRLSCNEVIPADMVLLFSTDPDGICHIETSGLDGESNLKQRQVVRGYAEQDSEVDPEKFSSRIECESPNNDLSRFRGFLEHSNKERVGLSKENLLLRGCTIRNTEAVVGIVVYAGHETKAMLNNSGPRYKRSKLERRANTDVLWCVMLLVIMCLTGAVGHGIWLSRYEKMHFFNVPEPDGHIISPLLAGFYMFWTMIILLQVLIPISLYVSIEIVKLGQIYFIQSDVDFYNEKMDSIVQCRALNIAEDLGQIQYLFSDKTGTLTENKMVFRRCSVAGFDYCHEENARRLESYQEAVSEDEDFIDTVSGSLSNMAKPRAPSCRTVHNGPLGNKPSNHLAGSSFTLGSGEGASEVPHSRQAAFSSPIETDVVPDTRLLDKFSQITPRLFMPLDETIQNPPMETLYIIDFFIALAICNTVVVSAPNQPRQKIRHPSLGGLPIKSLEEIKSLFQRWSVRRSSSPSLNSGKEPSSGVPNAFVSRLPLFSRMKPASPVEEEVSQVCESPQCSSSSACCTETEKQHGDAGLLNGKAESLPGQPLACNLCYEAESPDEAALVYAARAYQCTLRSRTPEQVMVDFAALGPLTFQLLHILPFDSVRKRMSVVVRHPLSNQVVVYTKGADSVIMELLSVASPDGASLEKQQMIVREKTQKHLDDYAKQGLRTLCIAKKVMSDTEYAEWLRNHFLAETSIDNREELLLESAMRLENKLTLLGATGIEDRLQEGVPESIEALHKAGIKIWMLTGDKQETAVNIAYACKLLEPDDKLFILNTQSKDACGMLMSTILKELQKKTQALPEQVSLSEDLLQPPVPRDSGLRAGLIITGKTLEFALQESLQKQFLELTSWCQAVVCCRATPLQKSEVVKLVRSHLQVMTLAIGDGANDVSMIQVADIGIGVSGQEGMQAVMASDFAVSQFKHLSKLLLVHGHWCYTRLSNMILYFFYKNVAYVNLLFWYQFFCGFSGTSMTDYWVLIFFNLLFTSAPPVIYGVLEKDVSAETLMQLPELYRSGQKSEAYLPHTFWITLLDAFYQSLVCFFVPYFTYQGSDTDIFAFGNPLNTAALFIVLLHLVIESKSLTWIHLLVIIGSILSYFLFAIVFGAMCVTCNPPSNPYWIMQEHMLDPVFYLVCILTTSIALLPRFVYRVLQGSLFPSPILRAKHFDRLTPEERTKALKKWRGAGKMNQVTSKYANQSAGKSGRRPMPGPSAVFAMKSASSCAIEQGNLSLCETALDQGYSETKAFEMAGPSKGKES [ATP10D] | 96.7% | –
MTLNNVTMRQGTVGMQPQQQRWSIPADGRHLMVQKEPHQYSHRNRHSATPEDHCRRSWSSDSTDSVISSESGNTYYRVVLIGEQGVGKSTLANIFAGVHDSMDSDCEVLGEDTYERTLMVDGESATIILLDMWENKGENEWLHDHCMQVGDAYLIVYSITDRASFEKASELRIQLRRARQTEDIPIILVGNKSDLVRCREVSVSEGRACAVVFDCKFIETSAAVQHNVKELFEGIVRQVRLRRDSKEKNERRLAYQKRKESMPRKARRFWGKIVAKNNKNMAFKLKSKSCHDLSVL [GEM] | 80.7% | 95.6%
MTLRCLEPSGNGGEGTRSQWGTAGSAEEPSPQAARLAKALRELGQTGWYWGSMTVNEAKEKLKEAPEGTFLIRDSSHSDYLLTISVKTSAGPTNLRIEYQDGKFRLDSIICVKSKLKQFDSVVHLIDYYVQMCKDKRTGPEAPRNGTVHLYLTKPLYTSAPSLQHLCRLTINKCTGAIWGLPLPTRLKDYLEEYKFQV [SOCS2] | 78.8% | 91.5%
MTPCLESFCQRAKDCKQNIPLPFLIQDWPLSESKPQGQDFWTPQPLQAAAPSHEFQQVALHPARTRLASRPQGGRLMSSREVGLRAPRCSCGKRKR [C5orf27] | 94.5% | 98.6%
MTSPHFSSYDEGPLDVSMAATNLENQLHSAQKNLLFLQREHASTLKGLHSEIRRLQQHCTDLTYELTVKSSEQTGDGTSKSSELKKRCEELEAQLKVKENENAELLKELEQKNAMITVLENTIKEREKKYLEELKAKSHKLTLLSSELEQRASTIAYLTSQLHAAKKKLMSSSGTSDASPSGSPVLASYKPAPPKDKLPETPRRRMKKSLSAPLHPEFEEVYRFGAESRKLLLREPVDAMPDPTPFLLARESAEVHLIKERPLVIPPIASDRSGEQHSPAREKPHKAHVGVAHRIHHATPPQAQPEVKTLAVDQVNGGKVVRKHSGTDRTV [CCDC92] | 92.8% | 95.4%
MTTDEGAKNNEESPTATVAEQGEDITSKKDRGVLKIVKRVGNGEETPMIGDKVYVHYKGKLSNGKKFDSSHDRNEPFVFSLGKGQVIKAWDIGVATMKKGEICHLLCKPEYAYGSAGSLPKIPSNATLFFEIELLDFKGEDLFEDGGIIRRTKRKGEGYSNPNEGATVEIHLEGRCGGRMFDCRDVAFTVGEGEDHDIPIGIDKALEKMQREEQCILYLGPRYGFGEAGKPKFGIEPNAELIYEVTLKSFEKAKESWEMDTKEKLEQAAIVKEKGTVYFKGGKYMQAVIQYGKIVSWLEMEYGLSEKESKASESFLLAAFLNLAMCYLKLREYTKAVECCDKALGLDSANEKGLYRRGEAQLLMNEFESAKGDFEKVLEVNPQNKAARLQISMCQKKAKEHNERDRRIYANMFKKFAEQDAKEEANKAMGKKTSEGVTNEKGTDSQAMEEEKPEGHV [FKBP5] | 94.4% | 98.3%
MTTEQRRSLQAFQDYIRKTLDPTYILSYMAPWFREEEVQYIQAEKNNKGPMEAATLFLKFLLELQEEGWFRGFLDALDHAGYSGLYEAIESWDFKKIEKLEEYRLLLKRLQPEFKTRIIPTDIISDLSECLINQECEEILQICSTKGMMAGAEKLVECLLRSDKENWPKTLKLALEKERNKFSELWIVEKGIKDVETEDLEDKMETSDIQIFYQEDPECQNLSENSCPPSEVSDTNLYSPFKPRNYQLELALPAMKGKNTIICAPTGCGKTFVSLLICEHHLKKFPQGQKGKVVFFANQIPVYEQQKSVFSKYFERHGYRVTGISGATAENVPVEQIVENNDIIILTPQILVNNLKKGTIPSLSIFTLMIFDECHNTSKQHPYNMIMFNYLDQKLGGSSGPLPQVIGLTASVGVGDAKNTDEALDYICKLCASLDASVIATVKHNLEELEQVVYKPQKFFRKVESRISDKFKYIIAQLMRDTESLAKRICKDLENLSQIQNREFGTQKYEQWIVTVQKACMVFQMPDKDEESRICKALFLYTSHLRKYNDALIISEHARMKDALDYLKDFFSNVRAAGFDEIEQDLTQRFEEKLQELESVSRDPSNENPKLEDLCFILQEEYHLNPETITILFVKTRALVDALKNWIEGNPKLSFLKPGILTGRGKTNQNTGMTLPAQKCILDAFKASGDHNILIATSVADEGIDIAQCNLVILYEYVGNVIKMIQTRGRGRARGSKCFLLTSNAGVIEKEQINMYKEKMMNDSILRLQTWDEAVFREKILHIQTHEKFIRDSQEKPKPVPDKENKKLLCRKCKALACYTADVRVIEECHYTVLGDAFKECFVSRPHPKPKQFSSFEKRAKIFCARQNCSHDWGIHVKYKTFEIPVIKIESFVVEDIATGVQTLYSKWKDFHFEKIPFDPAEMSK [DDX58] | 11.9% | 82%
MTVPVRGFSLLRGRLGRAPALGRSTAPSVRAPGEPGSAFRGFRSSGVRHEAIIISGTEMAKHIQKEIQRGVESWVSLGNRRPHLSIILVGDNPASHTYVRNKIRAASAVGICSELILKPKDVSQEELLDVTDQLNMDPRVSGILVQLPLPDHVDERTICNGIAPEKDVDGFHIINIGRLCLDQHSLIPATASAVWEIIKRTGIQTFGKNVVVAGRSKNVGMPIAMLLHTDGEHERPGGDATVTIAHRYTPKEQLKIHTQLADIIIVAAGIPKLITSDMVKEGAAVIDVGINYVHDPVTGKTKLVGDVDFEAVKKKAGFITPVPGGVGPMTVAMLLKNTLLAAKKIIY [MTHFD2L] | 95.5% | 97.9%
MVAHNQVAADNAVSTAAEPRRRPEPSSSSSSSPAAPARPRPCPAVPAPAPGDTHFRTFRSHADYRRITRASALLDACGFYWGPLSVHGAHERLRAEPVGTFLVRDSRQRNCFFALSVKMASGPTSIRVHFQAGRFHLDGSRESFDCLFELLEHYVAAPRRMLGAPLRQRRVRPLQELCRQRIVATVGRENLARIPLNPVLRDYLSSFPFQI [SOCS1] | 91.9% | 92.6%
MVAKDYPFYLTVKRANCSLELPPASGPAKDAEEPSNKRVKPLSRVTSLANLIPPVKATPLKRFSQTLQRSISFRSESRPDILAPRPWSRNAAPSSTKRRDSKLWSETFDVCVNQMLTSKEIKRQEAIFELSQGEEDLIEDLKLAKKAYHDPMLKLSIMTEQELNQIFGTLDSLIPLHEELLSQLRDVRKPDGSTEHVGPILVGWLPCLSSYDSYCSNQVAAKALLDHKKQDHRVQDFLQRCLESPFSRKLDLWNFLDIPRSRLVKYPLLLREILRHTPNDNPDQQHLEEAINIIQGIVAEINTKTGESECRYYKERLLYLEEGQKDSLIDSSRVLCCHGELKNNRGVKLHVFLFQEVLVITRAVTHNEQLCYQLYRQPIPVKDLLLEDLQDGEVRLGGSLRGAFSNNERIKNFFRVSFKNGSQSQTHSLQANDTFNKQQWLNCIRQAKETVLCAAGQAGVLDSEGSFLNPTTGSRELQGETKLEQMDQSDSESDCSMDTSEVSLDCERMEQTDSSCGNSRHGESNV [ARHGEF3] | 93.5% | 98.4%
MVMFKKIKSFEVVFNDPEKVYGSGEKVAGRVIVEVCEVTRVKAVRILACGVAKVLWMQGSQQCKQTSEYLRYEDTLLLEDQPTGENEMVIMRPGNKYEYKFGFELPQGPLGTSFKGKYGCVDYWVKAFLDRPSQPTQETKKNFEVVDLVDVNTPDLMAPVSAKKEKKVSCMFIPDGRVSVSARIDRKGFCEGDEISIHADFENTCSRIVVPKAAIVARHTYLANGQTKVLTQKLSSVRGNHIISGTCASWRGKSLRVQKIRPSILGCNILRVEYSLLIYVSVPGSKKVILDLPLVIGSRSGLSSRTSSMASRTSSEMSWVDLNIPDTPEAPPCYMDVIPEDHRLESPTTPLLDDMDGSQDSPIFMYAPEFKFMPPPTYTEVDPCILNNNVQ [TXNIP] | 95.1% | 97.9%

Two entries from above, as tab-separated lines.
Sequence	percent infected (BHK/NZAP-Zeo (ZAP))	percent infected (BHK/HA-Zeo (control))
MTLRCLEPSGNGGEGTRSQWGTAGSAEEPSPQAARLAKALRELGQTGWYWGSMTVNEAKEKLKEAPEGTFLIRDSSHSDYLLTISVKTSAGPTNLRIEYQDGKFRLDSIICVKSKLKQFDSVVHLIDYYVQMCKDKRTGPEAPRNGTVHLYLTKPLYTSAPSLQHLCRLTINKCTGAIWGLPLPTRLKDYLEEYKFQV [SOCS2]	78.8%	91.5%
MVMFKKIKSFEVVFNDPEKVYGSGEKVAGRVIVEVCEVTRVKAVRILACGVAKVLWMQGSQQCKQTSEYLRYEDTLLLEDQPTGENEMVIMRPGNKYEYKFGFELPQGPLGTSFKGKYGCVDYWVKAFLDRPSQPTQETKKNFEVVDLVDVNTPDLMAPVSAKKEKKVSCMFIPDGRVSVSARIDRKGFCEGDEISIHADFENTCSRIVVPKAAIVARHTYLANGQTKVLTQKLSSVRGNHIISGTCASWRGKSLRVQKIRPSILGCNILRVEYSLLIYVSVPGSKKVILDLPLVIGSRSGLSSRTSSMASRTSSEMSWVDLNIPDTPEAPPCYMDVIPEDHRLESPTTPLLDDMDGSQDSPIFMYAPEFKFMPPPTYTEVDPCILNNNVQ [TXNIP]	95.1%	97.9%

The data scatter; read single values as rough.
